Values from PubChem BioAssay AID1259405 (NCATS, 2018).

- Assay: 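Mouse-designed siRNAs used to find CHO productivity engineering targets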 (primary screen)
- System: Chinese hamster CHO-K1 ovary cells with stable secreted eGFP expression
- Reagent: single siRNA against mouse genes, 0.8 pmol siRNA per well (2 µl of 400 nM stock)
- Timing: 3 days
- Measured: 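Per-well intracellular GFP measured by laser scanning cytometry, plus viability from ATP luminescence, each relative to plate median of non-targeting control wells, in %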
- Direction: GFP, % of control: higher = more GFP per well, higher productivity; viability (ATP), % of control: higher = more viable cells (more ATP)
- Rule for the call: 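a knock-down is called active if GFP reaches 120% or more of non-targeting control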
Shown is a random part of about 50,000 deposited reagents. About 4,000 of them (8%) were called active. 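Mouse siRNA library applied to hamster cells; one well for each siRNA.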 The numbers tell different reagents against one gene apart.

Against Cypt1 (GeneID 66742) #1, the entry reads GFP, % of control 115; viability (ATP), % of control 95.9; inactive.
After knock-down of Cypt1 (GeneID 66742) #2, the record shows GFP, % of control 46.4; viability (ATP), % of control 31.2; inactive.
For Cypt1 (GeneID 66742) #3 the deposit lists GFP, % of control 39.7; viability (ATP), % of control 44; inactive.
For Adcy10 (GeneID 271639) #1 the deposit lists GFP, % of control 62.4; viability (ATP), % of control 113; inactive.
Depletion of Adcy10 (GeneID 271639) #2 resulted in: GFP, % of control 124; viability (ATP), % of control 70.8; active.
Against Aptx (GeneID 66408) #1, the entry reads GFP, % of control 44.3; viability (ATP), % of control 56.2; inactive.
Silencing of Aptx (GeneID 66408) #2 came out at: GFP, % of control 64.5; viability (ATP), % of control 72.7; inactive.
Knock-down of Aptx (GeneID 66408) #3 gave: GFP, % of control 57.5; viability (ATP), % of control 60.2; inactive.
Ankrd16 (GeneID 320816) #1 gave GFP, % of control 94.8; viability (ATP), % of control 64; inactive.
Against Ankrd16 (GeneID 320816) #2 the deposit lists GFP, % of control 36.3; viability (ATP), % of control 50.2; inactive.
For Ankrd16 (GeneID 320816) #3 the deposit lists GFP, % of control 92.7; viability (ATP), % of control 56.8; inactive.
With knock-down of Zfp623 (GeneID 78834) #1 the results were GFP, % of control 81.6; viability (ATP), % of control 66.9; inactive.
Against Zfp623 (GeneID 78834) #2, the entry reads GFP, % of control 53.2; viability (ATP), % of control 53.4; inactive.
Zfp623 (GeneID 78834) #3 gave GFP, % of control 68.4; viability (ATP), % of control 72.1; inactive.
Klra20 (GeneID 93967) #1 scored GFP, % of control 101; viability (ATP), % of control 112; inactive.
Klra20 (GeneID 93967) #2 showed GFP, % of control 70; viability (ATP), % of control 67.3; inactive.
Klra20 (GeneID 93967) #3 scored GFP, % of control 94.8; viability (ATP), % of control 76.9; inactive.

Entries listed so far whose gene name begins with Z or z:
Zfp623 (GeneID 78834) #1 → GFP, % of control = 81.6; viability (ATP), % of control = 66.9; call = inactive
Zfp623 (GeneID 78834) #2 → GFP, % of control = 53.2; viability (ATP), % of control = 53.4; call = inactive
Zfp623 (GeneID 78834) #3 → GFP, % of control = 68.4; viability (ATP), % of control = 72.1; call = inactive
